Measurements as given in the supplement of paper PMC11348887.
Counter-ions that a name gives are not always drawn. The list shows a part of the results. Most values lie at the level of the controls, where differences are scatter.

tested on: hPSC-derived cortical neurons (WA09); assay: nucleus area z-score vs screen plate; higher = larger nuclei (more mature); conditions: 5 µM; treatment: days 7-14 after plating, readout day 21

Row | Structure (SMILES) | nucleus area z-score
1 | CNCCc1ccccn1 [Betahistine 2HCl] | -0.505
2 | Cc1cccc(-c2[nH]c(CNc3ccccc3F)nc2-c2ccc3ncnn3c2)n1 | 4.48
3 | COC(=O)N[C@H](C(=O)N1CCC[C@H]1c1ncc(-c2ccc(-c3ccc(-c4cnc([C@@H]5CCCN5C(=O)[C@@H](NC(=O)OC)C(C)C)[nH]4)cc3)cc2)[nH]1)C(C)C | 0.176
4 | CCCNCC(O)COc1ccccc1C(=O)CCc1ccccc1 (stereo unspecified) [Propafenone HCl] | 0.0719
5 | O=C1NC(=O)C(c2cnc3ccccn23)=C1c1cn2c3c(cc(F)cc13)CN(C(=O)N1CCCCC1)CC2 | -0.665
6 | Oc1cccc(O)c1 [Resorcinol] | -0.125
7 | Cc1c(C(=O)N2CCOc3ccc(-c4ccc(N)nc4)cc3C2)ccc(S(C)(=O)=O)c1F | -2.14
8 | Nc1nc(=O)c2c([nH]1)NCC(CNc1ccc(C(=O)N[C@@H](CCC(=O)O)C(=O)O)cc1)N2C=O (stereo partly specified) [Leucovorin Calcium Pentahydrate] | -0.212
9 | CN1CCC[C@H]1c1cccnc1 [Nicotine Ditartrate] | -0.54
10 | C[C@H](NC(=O)CCc1nc2ccccc2c(=O)[nH]1)c1ccccc1 | 0.593
11 | COC(=O)Nc1nc2cc(C(=O)c3cccs3)ccc2[nH]1 [Nocodazole] | -5.24
12 | COc1ccc(-c2nc3cc(C4=NNC(=O)CC4C)ccc3[nH]2)cc1 (stereo unspecified) [Pimobendan] | 0.656
13 | Cc1c(O)cccc1C(=O)N[C@@H](CSc1ccccc1)[C@H](O)CN1C[C@H]2CCCC[C@H]2C[C@H]1C(=O)NC(C)(C)C [Nelfinavir Mesylate] | -1.6
14 | NC(=O)c1cccc(-c2cccc(OC(=O)NC3CCCCC3)c2)c1 | 0.741
15 | CCOC(=O)c1ccc(OC(=O)CCCCCNC(=N)N)cc1 [Gabexate Mesylate] | -0.29
16 | C[C@@H](Nc1cc(F)cc(F)c1)c1cc(C(=O)N(C)C)cc2c(=O)cc(N3CCOCC3)oc12 | -1.73
17 | CC1=C(C(=O)OC2CCCCC2)C(c2ccc([N+](=O)[O-])cc2)C2=C(CC(C)(C)CC2=O)N1 (stereo unspecified) | 0.452
18 | COc1ccc2c(c1)c(CC(=O)OCC(=O)O)c(C)n2C(=O)c1ccc(Cl)cc1 [Acemetacin] | 1.07

Row | Structure (SMILES) | nucleus area z-score
19 | CN1CCOC(c2ccccc2)c2ccccc2C1 (stereo unspecified) [Nefopam HCl] | 0.0321
20 | COc1ccc(COc2ccc(Cc3cnc(N)nc3N)cc2OC)cc1 | 1.55
21 | CCC[C@@H]1C[C@@H](C(=O)N[C@@H]([C@H]2O[C@H](SC)[C@H](O)[C@@H](O)[C@H]2O)[C@H](C)Cl)N(C)C1 [Clindamycin] | -1.86
22 | OC[C@H]1OC(O)[C@H](O)[C@@H](O)[C@@H]1O (stereo partly specified) [Dextrose] | 0.153
23 | CC(=O)O[C@]1(C(C)=O)CC[C@H]2[C@@H]3C=C(Cl)C4=CC(=O)CC[C@]4(C)[C@H]3CC[C@@]21C [Chlormadinone acetate] | 0.636
24 | CC(C)[C@H](O)C(=O)N[C@@H](C)C(=O)N[C@@H]1C(=O)N(C)CCc2ccccc21 | -0.91
25 | Nc1nc(F)nc2c1ncn2[C@@H]1O[C@H](CO)[C@@H](O)[C@@H]1O [Fludarabine] | 0.0317
26 | C[C@]12CC[C@H](O)CC1=CC[C@@H]1[C@@H]2CC[C@]2(C)C(n3cnc4ccccc43)=CC[C@@H]12 [Galeterone] | 0.436
27 | O=C(NCc1ccccc1)c1csc(Nc2ccncn2)n1 [Thiazovivin] | 0.55
28 | CCCCNc1ncc(C(=O)NCc2ccc(-n3ccnc3)cc2)c(NC2CCC(O)CC2)n1 (stereo unspecified) | -0.61
29 | CN1CCN2c3ncccc3Cc3ccccc3C2C1 (stereo unspecified) [Mirtazapine] | 0.00172
30 | C=CC(=O)Nc1ccc(CN2C(=O)N(c3cc(OC)cc(OC)c3)Cc3cnc(Nc4ccc(N5CCN(C)CC5)cc4)nc32)cc1 | -11.1
31 | C/C(=N\NC(=S)N1CCC1)c1ccccn1 | -16.1
32 | CCCCOc1c(C(=O)c2c(F)cc(C)cc2F)c[nH]c2nncc1-2 | 2.45
33 | CC/C(=C(\c1ccccc1)c1ccc(OCCN(C)C)cc1)c1ccccc1 [Tamoxifen] | -5.78
34 | O=C(/C=C/C=C/c1ccc2c(c1)OCO2)N1CCCCC1 [Piperine] | 0.475
35 | O=C(O)C[C@H](O)C[C@H](O)/C=C/c1c(C2CC2)nc2ccccc2c1-c1ccc(F)cc1 [Pitavastatin Calcium] | -5.24
36 | CCOc1cc2ncc(C#N)c(Nc3ccc(F)c(Cl)c3)c2cc1NC(=O)/C=C/CN(C)C [Pelitinib (EKB-569)] | -7.89

Reprinted at random: 2 entries already listed.
Row | Structure (SMILES) | nucleus area z-score
5 | O=C1NC(=O)C(c2cnc3ccccn23)=C1c1cn2c3c(cc(F)cc13)CN(C(=O)N1CCCCC1)CC2 | -0.665
22 | OC[C@H]1OC(O)[C@H](O)[C@@H](O)[C@@H]1O (stereo partly specified) [Dextrose] | 0.153
